The values below come from publication PMC11329753, “Human mitochondrial carriers of the SLC25 family function as monomers exchanging substrates with a ping-pong kinetic mechanism” (The EMBO Journal, 2024).

In experiment [1] the target is human mitochondrial oxoglutarate carrier (human) (UniProt Q02978). As to the kind of experiment: SEC; 150 μL of purified carrier on Superdex 200 Increase 10/300 in buffer B (20 mM HEPES pH 7.0, 50 mM NaCl, 0.1 mg/mL tetraoleoyl cardiolipin/0.1% (w/v) lauryl maltose neopentyl glycol); sized against ferritin, aldolase, conalbumin and ovalbumin; total weight corrected for bound lipid/detergent (≈135 kDa); both purified.

The target in experiment [2] is human mitochondrial dicarboxylate carrier (human) (UniProt Q9UBX3). Described as above.

These are yes or no findings as the source states them, for the method shown.

B1: human mitochondrial oxoglutarate carrier (protein, UniProt Q02978)
chain: MGKPRTSPKSVKFLFGGLAGMGATVFVQPLDLVKNRMQLSGEGAKTREYKTSFHALTSILKAEGLRGIYTGLSAGLLRQATYTTTRLGIYTVLFERLTGADGTPPGFLLKAVIGMTAGATGAFVGTPAEVALIRMTADGRLPADQRRGYKNVFNALIRITREEGVLTLWRGCIPTMARAVVVNAAQLASYSQSKQFLLDSGYFSDNILCHFCASMISGLVTTAASMPVDIAKTRIQNMRMIDGKPEYKNGLDVLFKVVRYEGFFSLWKGFTPYYARLGPHTVLTFIFLEQMNKAYKRLFLSG
As to B1, the binding result in experiment [1] was “no binding (tested: 1.1 mg/mL (150 μL applied))”.

B2: human mitochondrial dicarboxylate carrier (protein, UniProt Q9UBX3 1-287)
chain: MGKPAAEARVSRWYFGGLASCGAACCTHPLDLLKVHLQTQQEVKLRMTGMALRVVRTDGILALYSGLSASLCRQMTYSLTRFAIYETVRDRVAKGSQGPLPFHEKVLLGSVSGLAGGFVGTPADLVNVRMQNDVKLPQGQRRNYAHALDGLYRVAREEGLRRLFSGATMASSRGALVTVGQLSCYDQAKQLVLSTGYLSDNIFTHFVASFIAGGCATFLCQPLDVLKTRLMNSKGEYQGVFHCAVETAKLGPLAFYKGLVPAGIRLIPHTVLTFVFLEQLRKNFGIKVPS
Consider B2, for which the binding result in experiment [2] is “no binding (tested: 1.7 mg/mL (150 μL applied))”.
